According to patent publication US20120321635A1:
These are yes or no findings as the source states them, for the method shown. In cells and extracts the contact can be indirect. Some binding calls cover weakened binding; strength is not graded here. Where a sequence is shown, tags or fusion partners need not be part of it.

By UniProt entry, the sequences of proteins in these tests, tags left out.
UniProt O96013: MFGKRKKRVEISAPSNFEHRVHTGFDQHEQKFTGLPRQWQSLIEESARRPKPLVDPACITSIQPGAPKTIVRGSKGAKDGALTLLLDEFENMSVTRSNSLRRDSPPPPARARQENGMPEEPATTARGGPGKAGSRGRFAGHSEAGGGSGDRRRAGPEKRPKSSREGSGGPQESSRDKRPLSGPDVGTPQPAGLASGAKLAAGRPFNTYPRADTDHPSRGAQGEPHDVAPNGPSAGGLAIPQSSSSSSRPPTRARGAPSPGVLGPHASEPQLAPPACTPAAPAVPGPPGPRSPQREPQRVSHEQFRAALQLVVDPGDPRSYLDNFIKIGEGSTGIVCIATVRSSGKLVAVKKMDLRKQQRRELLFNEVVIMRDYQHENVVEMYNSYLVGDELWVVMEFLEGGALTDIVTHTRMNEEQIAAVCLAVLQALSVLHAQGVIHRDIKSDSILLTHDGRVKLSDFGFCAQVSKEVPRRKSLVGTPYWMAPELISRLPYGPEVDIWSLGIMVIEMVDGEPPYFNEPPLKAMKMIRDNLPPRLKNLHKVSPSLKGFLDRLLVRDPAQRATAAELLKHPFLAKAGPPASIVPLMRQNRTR

Tests used:
[1] = target: p21-activated kinase 4 (PAK4) protein expressed from pcDNA-PAK4-flag vector (UniProt O96013); experiment: co-immunoprecipitation from HEK293T cytoplasm fraction (anti-Flag IP, anti-c-myc Western blot)
[2] = target: p21-activated kinase 4 (PAK4) protein expressed from pcDNA-PAK4-flag vector (UniProt O96013); experiment: co-immunoprecipitation from HEK293T cells (restated from Example 3-1)
[3] = target: p21-activated kinase 4 (PAK4) protein expressed from pcDNA-PAK4-flag vector (UniProt O96013); experiment: co-immunoprecipitation and Western blotting

Measured: binding

B1: myc-labelled SH3RF2 (SH3 domain containing ring finger 2) protein expressed from pcDNA-SH3RF2-myc (enzyme, not shown: small tags and cut ends)
chain: MDDLTLLDLLECPVCFEKLDVTAKVLPCQHTFCKPCLQRVFKAHKELRCPECRTPVFSNIEALPANLLLVRLLDGVRSGQSSGRGGSFRRPGTMTLQDGRKSRTNPRRLQASPFRLVPNVRIHMDGVPRAKALCNYRGQNPGDLRFNKGDIILLRRQLDENWYQGEINGISGNFPASSVEVIKQLPQPPPLCRALYNFDLRGKDKSENQDCLTFLKDDIITVISRVDENWAEGKLGDKVGIFPILFVEPNLTARHLLEKNKGRQSSCTKNLSLVSSSSRGNTSTLRRGPGSRRKVPGQFSITTALNTLNRMVHSPSGRHMVEISTPVLISSSNPSVITQPMEKADVPSSCVGQVSTYHPAPVSPGHSTAVVSLPGSQQHLSANMFVALHSYSAHGPDELDLQKGEGVRVLGKCQDGWLRGVSLVTGRVGIFPNNYVIPIFRKTSSFPDSRSPGLYTTWTLSTSSVSSQGSISEGDPRQSRPFKSVFVPTAIVNPVRSTAGPGTLGQGSLRKGRSSMRKNGSLQRPLQSGIPTLVVGSLRRSPTMVLRPQQFQFYQPQGIPSSPSAVVVEMGSKPALTGEPALTCISRGSEARIHSAASSLIMEDKEIPIKSEPLPKPPASAPPSILVKPENSRNGIEKQVKTVRFQNYSPPPTKHYTSHPTSGKPEQPATLKASQPEAASLGPEMTVLFAHRSGCHSGQQTDLRRKSALAKATTLVSTASGTQTVFPSK
binds: all assays above
